## Primary screen of a compound library

Protein sequences, listed by entry. Tags and fused reporters are not part of them.
UniProt E9BF75, entry or part of it: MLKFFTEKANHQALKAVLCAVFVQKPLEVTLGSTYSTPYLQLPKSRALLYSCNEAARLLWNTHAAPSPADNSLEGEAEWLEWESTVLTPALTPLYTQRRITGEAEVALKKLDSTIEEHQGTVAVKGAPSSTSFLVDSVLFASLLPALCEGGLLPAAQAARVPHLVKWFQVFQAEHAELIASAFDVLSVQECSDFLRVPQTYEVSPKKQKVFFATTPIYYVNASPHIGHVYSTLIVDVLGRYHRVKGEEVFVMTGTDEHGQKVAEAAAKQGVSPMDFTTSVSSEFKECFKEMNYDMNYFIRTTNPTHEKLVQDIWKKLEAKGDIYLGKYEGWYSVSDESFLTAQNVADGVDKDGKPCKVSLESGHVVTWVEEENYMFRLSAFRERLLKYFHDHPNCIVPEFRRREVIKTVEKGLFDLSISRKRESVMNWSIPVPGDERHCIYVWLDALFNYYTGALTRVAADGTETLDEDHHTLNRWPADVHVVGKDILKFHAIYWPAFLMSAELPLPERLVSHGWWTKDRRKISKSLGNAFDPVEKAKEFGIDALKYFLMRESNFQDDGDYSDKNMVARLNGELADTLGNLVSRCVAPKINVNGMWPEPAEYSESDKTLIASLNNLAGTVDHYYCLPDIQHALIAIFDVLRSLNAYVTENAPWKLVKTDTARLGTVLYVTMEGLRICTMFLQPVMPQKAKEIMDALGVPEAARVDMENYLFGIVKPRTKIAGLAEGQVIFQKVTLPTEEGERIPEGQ

The values are deposited in ChEMBL (CHEMBL3988442, “University of Dundee, Small-Polar-MMV Screening Library” (2021)).

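Methionyl-tRNA synthetase (putative), Leishmania donovani (UniProt E9BF75). Primary screen of methionyl-tRNA synthetase; the read-out is not stated. The test concentration is not given. The values are filed as inhibition. Of about 68,000 compounds tested this way, about 24 (0.035%) reached 50% or more in at least one test.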

Results are percentages, as filed. The record does not define 0% and 100%; most values in the screen are far below 50% and negative numbers occur (in some assays of this library far below -100). This is an unselected part of the compounds tested.

structure,Inhibition
O=C(NCc1nc[nH]n1)c1cc(COc2cccc(C(F)(F)F)c2)[nH]n1,6.344%
CS(=O)(=O)NCC1CCCCN1C(=O)Nc1cccnc1N1CCCC1 (stereo unspecified),13.38%
CC(C)(C)c1ncc(CNCC2CCCn3ccnc32)s1 (stereo unspecified),8.6%
Cc1noc(C(C)N2CCN(c3ncnc4ccccc34)CC2)n1 (stereo unspecified),12.24%
O=C(Nc1ccccc1)c1cc2n(n1)CCCN(C(=O)c1ccc[nH]1)C2,-9.115%
OC(COc1ccccc1)CN1CCc2c(ncn2C2CC2)C1 (stereo unspecified),20.28%
O=C(Cc1ccsc1)N1Cc2nc(CN3CCCCC3)oc2C1,15.58%
O=C(COc1coc(CN2CCCCC2)cc1=O)c1ccccc1,9.329%
CN1CCCCc2c1nc1c(c2N)CCCC1,15.32%
CCN1Cc2nc(OC)c(CNC(=O)C3CCCN(C)C3)cc2C1=O (stereo unspecified),13.47%
Cc1cc(O)nc(C2CCCN(CCO)C2)n1 (stereo unspecified),18.99%
CC(C)N1CCCC(C(=O)N2CCN(c3cccc(C(=O)O)c3)CC2)C1 (stereo unspecified),7.05%
Cn1ncc2c1NC(=O)CC2c1ccc(F)cc1 (stereo unspecified),5.707%
CC(C)c1nc(CN(C)C2CCN(CCc3ccncc3)C2)no1 (stereo unspecified),20.77%
CC/N=c1\c(NC(=O)C(C)(C)C)c(O)oc2ccccc12,14.64%
Cc1cnccc1N1CCCN(C(=O)CCCS(N)(=O)=O)CC1,14.29%
CCn1cc(C(=O)Nc2ccc(C)cc2C(=O)OC)cn1,18.85%
CCOC(=O)[C@]12CCCN(Cc3ccco3)C[C@H]1CN(CCN(C)C)C2,13.73%
CS(=O)(=O)N1CC[C@H]2OCC[C@@]2(C(=O)NCc2ccccn2)C1,19.12%
CC(C)CNC(=O)Nc1cccc(OCC#N)c1,8.101%
CCOC(C)c1nc(CNc2cccc(Cl)c2OC)cs1 (stereo unspecified),4.032%
CC1CCCCN1CCNC(=O)c1ccn(-c2ccccc2)n1 (stereo unspecified),7.055%
CC(C)c1noc(CCC(=O)Nc2cc(F)ccc2F)n1,2.835%
COCCCN(Cc1cnc(C2CCCCC2)nc1)C1CCN(C)CC1,11.75%
Cn1c(CCN2CCN(c3ccc(O)cc3)CC2)nc2ccccc21,8.788%
Cc1[nH]ccc1C(=O)Nc1cccc(CN2CCC(O)CC2)c1,10.56%
O=C1NCCN1C1CCN(Cc2coc(-c3ccc(F)cc3)n2)CC1,15.92%
COCCN1CC2(CCC1=O)CCN(Cc1cc(F)ccc1Cl)CC2,-3.352%
COc1ccc2c(c1)NC(C1CCNCC1)NS2(=O)=O (stereo unspecified),11.7%
Cn1cc(N2CC3(CCN(Cc4cccnc4)CC3)OCC2=O)cn1,8%
C1CCC(CNC2CCCN(Cc3noc(C4CC4)n3)C2)CC1 (stereo unspecified),5.076%
CC(Oc1cc(Cl)cc(Cl)c1)C(=O)NCCC(=O)N(C)C (stereo unspecified),12.91%
O=C(NC1CC1)c1nc2c(s1)CCCN2c1ccccc1,16.44%
COCC(c1cccc(C(F)(F)F)c1)N(C)C(=O)c1cccnc1 (stereo unspecified),22.4%
CC(C)S(=O)(=O)c1ccccc1C(=O)NCC1Cc2ccccc2O1 (stereo unspecified),13.04%
Cc1ccc2cnn(CCC(=O)Nc3nc(C)c(C)s3)c2c1,-21.36%
Cc1cc(CNc2cc(-c3ccoc3C)nn2CCO)c(C)o1,17.37%
O=C(NCc1ccco1)N1CCC(n2cc(-c3ccccn3)nn2)CC1,10.03%
Cc1ccccc1CN1CCC2(CC1)CN(S(=O)(=O)c1ccccc1)C2,2.778%
CCS(=O)(=O)N1CCO[C@H]2[C@H](OCCCn3cccn3)CC[C@@H]21,12.13%
Cc1csc2c(=O)n(CCSc3cnn[nH]3)cnc12,15.4%
CS(=O)(=O)N1C[C@H]2C[C@H](C(=O)N3CCOCC3)[C@@H](C1)O2,15.69%
COCCNC(=O)c1cc2c(s1)CCN2C(=O)c1ccccc1,17.99%
COCCc1noc(CNC(C)(CO)C2CCCCC2)n1 (stereo unspecified),13.4%
CN(C)Cc1ccnc(C2CN(CCCc3ccccc3)CCO2)n1 (stereo unspecified),23.16%
N#Cc1cccc(C(=O)N2CCn3c(Cn4cncn4)cnc3C2)c1,7.397%
O=C(Nc1nncs1)N(Cc1cccc(O)c1)C1CC1,17.38%
COc1coc(C(=O)Nc2nc(-c3cccnc3)cs2)cc1=O,15.05%
Cc1cc(C)n(-c2cncc(N3CCN(C(=O)C(C)C)CC3)n2)n1,9.341%
Cc1nsc(NC(=O)NC2(CN3CCOCC3)CCCC2)n1,10.68%
O=C(c1cc(-c2ccccc2)nc2onc(C3CC3)c12)N1CC[C@H](O)C1,11.15%
Cc1ccc(CC(=O)N2Cc3nccn3CC(Cn3cccn3)C2)cc1 (stereo unspecified),18.5%
CS(=O)(=O)N1C[C@@H]2CC[C@H](C1)N(C(=O)CCn1cnc3ccccc31)C2,-2.405%
CS(=O)(=O)NCC1CCCN(C(=O)c2ccco2)C1 (stereo unspecified),16.87%
Cc1ccsc1CNC(=O)c1ccc(N2CCOC2=O)cc1,6.906%
Cc1nn(S(=O)(=O)c2ccc(Cl)cc2)c(C)c1C,8.84%
CC(=O)Nc1ccc(C(=O)NCCCn2cccc2)cc1,14.08%
CC(C)C1CCC(N2CCN(CCS(C)(=O)=O)CC2)CC1 (stereo unspecified),11.63%
CCN(C(=O)c1ccccc1I)C1CC(=O)NC1=O (stereo unspecified),8.156%
CN(Cc1cccnc1)CC1CC12CCCC2 (stereo unspecified),14.64%
CCC(C)c1csc(NC(=O)Cc2csc(-c3nnc[nH]3)n2)n1 (stereo unspecified),13.24%
O=C(Cc1ccccn1)N1CCCC(c2nccn2CC2CCC2)C1 (stereo unspecified),6.213%
CCn1cc(-c2cc(-c3ccn(C)c3)nc(N)c2C#N)cc1C#N,15.76%
CCS(=O)(=O)CCSc1cccc(C#N)c1,-2.538%
Cc1cccc(OCC(=O)NS(=O)(=O)Cc2ccccc2)c1,7.99%
c1ccc(OCc2cscn2)c(CNC2CCc3ncnn3C2)c1 (stereo unspecified),7.232%
O=C(c1cn(-c2ccccc2)nn1)N1CCOCC(O)C1 (stereo unspecified),0.625%
CCc1ccc(CN(C)Cc2cnc(S(=O)(=O)CC)n2CCOC)cc1,11.37%
CS(=O)(=O)Nc1ccc([C@H]2OCC(=O)N[C@@H]2CO)cc1,8.271%
Cc1nccc(N[C@H]2CN(CC(C)(C)N3CCOCC3)C[C@@H]2C2CC2)n1,2.03%
Cc1cccc(CN2CC[C@@H]3[C@@H]2CCN3C(=O)c2cc(C)on2)n1,7.781%
c1ccc(COC[C@]23COC[C@H]2CN(c2ncccn2)C3)nc1,7.397%
Cc1noc(C)c1CN1CCO[C@H]2CN(C(=O)N3CCCC3)C[C@H]21,12.5%

The last 7 entries again:

structure	Inhibition
O=C(c1cn(-c2ccccc2)nn1)N1CCOCC(O)C1 (stereo unspecified)	0.625%
CCc1ccc(CN(C)Cc2cnc(S(=O)(=O)CC)n2CCOC)cc1	11.37%
CS(=O)(=O)Nc1ccc([C@H]2OCC(=O)N[C@@H]2CO)cc1	8.271%
Cc1nccc(N[C@H]2CN(CC(C)(C)N3CCOCC3)C[C@@H]2C2CC2)n1	2.03%
Cc1cccc(CN2CC[C@@H]3[C@@H]2CCN3C(=O)c2cc(C)on2)n1	7.781%
c1ccc(COC[C@]23COC[C@H]2CN(c2ncccn2)C3)nc1	7.397%
Cc1noc(C)c1CN1CCO[C@H]2CN(C(=O)N3CCCC3)C[C@H]21	12.5%